From PMC9637222, “Autoinducer-2 and bile salts induce c-di-GMP synthesis to repress the T3SS via a T3SS chaperone” (Nature Communications, 2022)
These are yes or no findings as the source states them, for the method shown. Binding seen in cells or lysates may run through a third protein. Some entries that bind do so weakly or less than the wild type. Sequences can lack the tags named with a protein.

Sequences of proteins named here, by UniProt entry; tags and fusion partners are left off.
UniProt P69066: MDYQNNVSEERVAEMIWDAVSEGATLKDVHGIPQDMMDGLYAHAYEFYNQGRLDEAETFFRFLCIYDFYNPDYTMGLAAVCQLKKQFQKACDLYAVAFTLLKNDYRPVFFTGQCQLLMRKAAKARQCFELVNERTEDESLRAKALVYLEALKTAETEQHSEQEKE

B1: InvF-His6 (protein, UniProt P69343 1-216)
chain: MSFSESRHNENCLIQEGALLFCEQAVVAPVSGDLVFRPLKIEVLSKLLAFIDGAGLVDTTYAESDKWVLLSPEFRAIWQDRKRCEYWFLQQIITPSPAFNKVLALLRKSESYWLVGYLLAQSTSGNTMRMLGEDYGVSYTHFRRLCSRALGGKAKSELRNWRMAQSLLNSVEGHENITQLAVNHGYSSPSHFSSEIKELIGVSPRKLSNIIQLADK
B2: SipB-His6 (protein, UniProt Q56019 1-593)
chain: MVNDASSISRSGYTQNPRLAEAAFEGVRKNTDFLKAADKAFKDVVATKAGDLKAGTKSGESAINTVGLKPPTDAAREKLSSEGQLTLLLGKLMTLLGDVSLSQLESRLAVWQAMIESQKEMGIQVSKEFQTALGEAQEATDLYEASIKKTDTAKSVYDAATKKLTQAQNKLQSLDPADPGYAQAEAAVEQAGKEATEAKEALDKATDATVKAGTDAKAKAEKADNILTKFQGTANAASQNQVSQGEQDNLSNVARLTMLMAMFIEIVGKNTEESLQNDLALFNALQEGRQAEMEKKSAEFQEETRKAEETNRIMGCIGKVLGALLTIVSVVAAVFTGGASLALAAVGLAVMVADEIVKAATGVSFIQQALNPIMEHVLKPLMELIGKAITKALEGLGVDKKTAEMAGSIVGAIVAAIAMVAVIVVVAVVGKGAAAKLGNALSKMMGETIKKLVPNVLKQLAQNGSKLFTQGMQRITSGLGNVGSKMGLQTNALSKELVGNTLNKVALGMEVTNTAAQSAGGVAEGVFIKNASEALADFMLARFAMDQIQQWLKQSVEIFGENQKVTAELQKAMSSAVQQNADASRFILRQSRA

Molecular target: SicA-HA (S. Typhimurium) (UniProt P69066)
Assay: co-IP

| Binder | binding |
| --- | --- |
| B1 | binds |
| B2 | binds |
